Data: article PMC10520678
No constants are given. Whether binding was seen depends on the method and setting. In cells and extracts the contact can be indirect. Here binding means that the protein was enriched with, or labelled near, the bait; the list need not be complete.

Protein sequences, listed by entry. Tags and fused reporters are not part of them. Residues count along the entry.
UniProt Q08722, residues 19-323: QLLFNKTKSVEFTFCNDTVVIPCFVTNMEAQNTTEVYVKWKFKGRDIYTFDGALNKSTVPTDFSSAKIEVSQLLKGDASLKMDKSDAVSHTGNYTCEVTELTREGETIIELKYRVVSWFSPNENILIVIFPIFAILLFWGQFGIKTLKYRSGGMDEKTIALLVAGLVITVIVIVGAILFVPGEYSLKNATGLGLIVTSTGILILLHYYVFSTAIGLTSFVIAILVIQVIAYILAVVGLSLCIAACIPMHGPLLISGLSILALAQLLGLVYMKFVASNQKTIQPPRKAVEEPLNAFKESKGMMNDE
UniProt P19474: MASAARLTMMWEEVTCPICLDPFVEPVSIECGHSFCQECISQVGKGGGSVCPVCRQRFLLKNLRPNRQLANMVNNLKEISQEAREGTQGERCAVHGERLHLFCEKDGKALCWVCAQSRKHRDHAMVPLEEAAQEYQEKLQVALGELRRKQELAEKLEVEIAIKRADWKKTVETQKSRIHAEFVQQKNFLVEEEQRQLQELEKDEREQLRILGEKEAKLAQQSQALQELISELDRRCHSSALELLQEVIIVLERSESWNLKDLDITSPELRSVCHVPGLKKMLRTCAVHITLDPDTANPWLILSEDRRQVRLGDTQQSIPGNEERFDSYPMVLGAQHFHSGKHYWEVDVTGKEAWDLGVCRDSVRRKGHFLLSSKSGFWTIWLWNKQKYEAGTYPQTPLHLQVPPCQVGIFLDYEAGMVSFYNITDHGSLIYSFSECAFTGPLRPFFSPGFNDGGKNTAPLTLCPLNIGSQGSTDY

Target: CD47 (integrin-associated protein), endogenous in U251 cells (human (endogenous in U251)) (UniProt Q08722)
Test: affinity purification with mass spectrometry; mass spectrum analyses of immunoprecipitated CD47; cells not stated for this experiment

TRIM21 (tripartite motif-containing protein 21), endogenous in U251 cells (from UniProt P19474 1-475) (enzyme)
binding: binds
